{"sequences": {"note": "The chains behind the UniProt entries cited, without tags or fusion partners.", "UniProt Q92793, whole entry": "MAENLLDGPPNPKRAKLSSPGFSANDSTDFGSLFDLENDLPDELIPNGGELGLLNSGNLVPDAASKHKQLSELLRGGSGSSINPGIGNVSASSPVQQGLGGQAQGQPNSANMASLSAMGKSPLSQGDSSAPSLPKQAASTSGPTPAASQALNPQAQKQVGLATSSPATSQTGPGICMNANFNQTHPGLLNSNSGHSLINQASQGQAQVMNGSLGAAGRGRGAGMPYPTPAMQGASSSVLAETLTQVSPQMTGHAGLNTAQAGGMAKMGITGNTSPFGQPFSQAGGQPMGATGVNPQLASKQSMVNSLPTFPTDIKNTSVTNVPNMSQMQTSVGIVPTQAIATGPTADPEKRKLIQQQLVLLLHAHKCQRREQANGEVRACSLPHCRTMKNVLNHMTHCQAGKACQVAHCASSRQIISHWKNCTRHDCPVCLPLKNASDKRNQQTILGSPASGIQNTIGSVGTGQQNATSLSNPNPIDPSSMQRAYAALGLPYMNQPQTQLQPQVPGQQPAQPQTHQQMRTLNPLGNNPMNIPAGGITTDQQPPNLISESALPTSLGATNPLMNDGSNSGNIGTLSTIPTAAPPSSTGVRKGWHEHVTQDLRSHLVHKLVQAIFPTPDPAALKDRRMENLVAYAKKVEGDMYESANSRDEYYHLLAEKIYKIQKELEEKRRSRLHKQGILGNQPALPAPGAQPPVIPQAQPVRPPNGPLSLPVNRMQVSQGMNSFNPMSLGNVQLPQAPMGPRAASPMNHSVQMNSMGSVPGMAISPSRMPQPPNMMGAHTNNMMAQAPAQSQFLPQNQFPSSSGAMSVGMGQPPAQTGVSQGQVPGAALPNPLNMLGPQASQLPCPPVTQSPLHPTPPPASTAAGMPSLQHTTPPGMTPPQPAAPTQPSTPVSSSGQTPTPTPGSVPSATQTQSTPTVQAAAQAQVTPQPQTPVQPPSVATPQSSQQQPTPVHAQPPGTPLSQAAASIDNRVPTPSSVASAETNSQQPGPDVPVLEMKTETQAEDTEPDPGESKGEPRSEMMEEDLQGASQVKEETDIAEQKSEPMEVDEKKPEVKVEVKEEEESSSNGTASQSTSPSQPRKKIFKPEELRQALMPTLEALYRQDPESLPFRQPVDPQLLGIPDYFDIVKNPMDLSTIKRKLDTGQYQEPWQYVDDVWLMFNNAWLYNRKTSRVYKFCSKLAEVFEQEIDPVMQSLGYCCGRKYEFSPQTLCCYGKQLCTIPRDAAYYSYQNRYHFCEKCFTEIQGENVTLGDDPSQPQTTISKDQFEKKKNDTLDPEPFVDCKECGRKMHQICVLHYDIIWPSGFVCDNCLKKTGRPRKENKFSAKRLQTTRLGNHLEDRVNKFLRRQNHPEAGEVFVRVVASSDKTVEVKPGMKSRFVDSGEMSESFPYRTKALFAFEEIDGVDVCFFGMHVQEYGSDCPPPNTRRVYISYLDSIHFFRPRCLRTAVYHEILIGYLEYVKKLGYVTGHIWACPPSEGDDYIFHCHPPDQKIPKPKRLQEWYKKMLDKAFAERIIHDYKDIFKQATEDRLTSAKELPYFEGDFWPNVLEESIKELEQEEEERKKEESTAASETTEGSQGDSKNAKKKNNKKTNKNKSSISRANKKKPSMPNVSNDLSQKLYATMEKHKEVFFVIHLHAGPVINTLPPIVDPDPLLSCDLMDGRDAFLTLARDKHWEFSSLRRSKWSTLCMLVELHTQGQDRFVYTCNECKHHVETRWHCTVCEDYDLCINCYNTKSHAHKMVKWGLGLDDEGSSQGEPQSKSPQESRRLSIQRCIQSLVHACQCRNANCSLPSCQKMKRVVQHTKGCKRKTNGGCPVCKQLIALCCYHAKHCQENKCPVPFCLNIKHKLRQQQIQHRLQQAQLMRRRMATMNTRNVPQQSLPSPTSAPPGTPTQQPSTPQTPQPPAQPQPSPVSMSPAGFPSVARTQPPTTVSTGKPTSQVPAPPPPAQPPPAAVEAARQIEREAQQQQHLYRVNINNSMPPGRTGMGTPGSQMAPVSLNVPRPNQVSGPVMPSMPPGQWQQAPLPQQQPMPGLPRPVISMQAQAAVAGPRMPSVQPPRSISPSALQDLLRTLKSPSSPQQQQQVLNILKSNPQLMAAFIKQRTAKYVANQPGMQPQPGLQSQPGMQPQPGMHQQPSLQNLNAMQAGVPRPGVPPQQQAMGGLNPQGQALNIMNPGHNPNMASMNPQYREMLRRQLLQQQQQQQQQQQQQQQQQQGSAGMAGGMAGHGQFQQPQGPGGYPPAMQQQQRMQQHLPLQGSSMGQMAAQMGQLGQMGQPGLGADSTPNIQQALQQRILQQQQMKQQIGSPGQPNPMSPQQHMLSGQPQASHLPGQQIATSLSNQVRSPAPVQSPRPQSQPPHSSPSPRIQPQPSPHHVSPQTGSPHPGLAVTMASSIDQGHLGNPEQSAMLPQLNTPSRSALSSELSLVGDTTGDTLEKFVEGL", "UniProt Q09472, whole entry": "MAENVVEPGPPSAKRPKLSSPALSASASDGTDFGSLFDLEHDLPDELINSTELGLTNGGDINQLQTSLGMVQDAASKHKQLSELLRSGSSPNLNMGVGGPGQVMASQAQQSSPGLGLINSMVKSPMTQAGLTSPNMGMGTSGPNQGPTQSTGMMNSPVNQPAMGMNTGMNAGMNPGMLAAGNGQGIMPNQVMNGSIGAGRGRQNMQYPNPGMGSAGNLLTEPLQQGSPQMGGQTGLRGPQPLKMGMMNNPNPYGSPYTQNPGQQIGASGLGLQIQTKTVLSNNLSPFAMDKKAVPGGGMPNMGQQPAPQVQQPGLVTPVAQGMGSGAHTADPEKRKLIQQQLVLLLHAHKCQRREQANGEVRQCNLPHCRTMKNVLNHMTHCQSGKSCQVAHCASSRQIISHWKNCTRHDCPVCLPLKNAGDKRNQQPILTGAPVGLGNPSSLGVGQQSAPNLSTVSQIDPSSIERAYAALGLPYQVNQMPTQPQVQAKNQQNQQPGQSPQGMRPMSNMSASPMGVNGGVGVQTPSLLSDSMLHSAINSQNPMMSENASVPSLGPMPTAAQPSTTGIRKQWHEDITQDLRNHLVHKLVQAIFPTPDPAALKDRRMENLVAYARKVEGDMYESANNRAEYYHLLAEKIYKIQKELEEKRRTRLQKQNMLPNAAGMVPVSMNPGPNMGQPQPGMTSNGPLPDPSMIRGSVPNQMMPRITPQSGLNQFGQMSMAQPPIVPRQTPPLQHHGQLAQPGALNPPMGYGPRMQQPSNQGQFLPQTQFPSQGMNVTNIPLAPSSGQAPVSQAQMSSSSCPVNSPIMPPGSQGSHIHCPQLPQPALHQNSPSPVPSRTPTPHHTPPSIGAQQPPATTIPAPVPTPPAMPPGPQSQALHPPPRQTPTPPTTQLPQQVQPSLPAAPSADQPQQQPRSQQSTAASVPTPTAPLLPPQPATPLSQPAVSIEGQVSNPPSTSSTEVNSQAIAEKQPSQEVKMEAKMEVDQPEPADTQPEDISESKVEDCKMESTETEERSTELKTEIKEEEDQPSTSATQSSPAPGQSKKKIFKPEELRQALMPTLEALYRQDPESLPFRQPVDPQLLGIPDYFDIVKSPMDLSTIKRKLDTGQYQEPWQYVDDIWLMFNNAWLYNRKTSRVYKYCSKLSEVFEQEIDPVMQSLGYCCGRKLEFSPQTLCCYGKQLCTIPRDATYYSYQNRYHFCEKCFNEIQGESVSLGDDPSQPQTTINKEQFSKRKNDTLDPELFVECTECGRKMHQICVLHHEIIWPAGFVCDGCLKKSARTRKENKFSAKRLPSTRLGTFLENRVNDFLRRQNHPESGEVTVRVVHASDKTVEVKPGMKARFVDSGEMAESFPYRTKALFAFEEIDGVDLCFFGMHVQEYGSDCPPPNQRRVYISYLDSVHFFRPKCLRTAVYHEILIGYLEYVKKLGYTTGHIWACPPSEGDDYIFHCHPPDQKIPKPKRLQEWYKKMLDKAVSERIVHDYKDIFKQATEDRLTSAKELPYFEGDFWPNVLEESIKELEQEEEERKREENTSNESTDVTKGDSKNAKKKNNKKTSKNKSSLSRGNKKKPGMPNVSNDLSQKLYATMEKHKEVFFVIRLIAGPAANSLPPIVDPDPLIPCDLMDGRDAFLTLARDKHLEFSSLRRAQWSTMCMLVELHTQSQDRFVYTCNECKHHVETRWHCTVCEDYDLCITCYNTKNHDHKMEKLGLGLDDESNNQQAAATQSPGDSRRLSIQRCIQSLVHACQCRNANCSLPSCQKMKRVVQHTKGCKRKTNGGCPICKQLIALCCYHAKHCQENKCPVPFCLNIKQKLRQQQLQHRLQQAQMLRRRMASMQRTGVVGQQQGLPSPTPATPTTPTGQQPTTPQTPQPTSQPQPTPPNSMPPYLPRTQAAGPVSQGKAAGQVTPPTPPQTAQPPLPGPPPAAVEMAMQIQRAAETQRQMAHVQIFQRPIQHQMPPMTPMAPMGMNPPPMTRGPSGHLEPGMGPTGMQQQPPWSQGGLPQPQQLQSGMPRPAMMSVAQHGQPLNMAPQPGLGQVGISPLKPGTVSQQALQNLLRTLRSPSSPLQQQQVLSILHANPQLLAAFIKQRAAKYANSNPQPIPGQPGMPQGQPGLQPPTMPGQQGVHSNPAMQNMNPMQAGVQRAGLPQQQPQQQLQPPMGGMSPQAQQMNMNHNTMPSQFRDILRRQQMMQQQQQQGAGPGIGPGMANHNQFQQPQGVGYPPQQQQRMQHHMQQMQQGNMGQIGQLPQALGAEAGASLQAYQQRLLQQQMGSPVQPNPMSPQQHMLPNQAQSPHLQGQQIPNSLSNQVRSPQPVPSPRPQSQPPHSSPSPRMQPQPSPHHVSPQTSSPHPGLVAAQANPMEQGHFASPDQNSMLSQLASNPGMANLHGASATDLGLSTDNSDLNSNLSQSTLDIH"}, "source": "patent US12496348B2", "about": "“Small molecule target bromo/acetyl proteins and uses thereof” (DANA-FARBER CANCER INSTITUTE, INC., priority 2019, dated 2025)", "assay_type_in_all_cases": "cell-based", "key": {"[1]": {"test_system": "Kelly Neuroblastoma cells", "assay": "ATPlite Luminescence viability assay, Kelly neuroblastoma cells, 72 h", "conditions": "Kelly Neuroblastoma cell proliferation", "procedure": "Kelly Neuroblastoma cells were seeded at 1,000 cells per well in 384 well, white plates and were treated in a dose-dependent manner for 72 h."}, "[2]": {"biological_target": "CBP (Homo sapiens (Human), UniProt Q92793)", "assay": "Western blot for CBP degradation in Kelly NB cells", "conditions": "24 hours, concentration not given", "procedure": "(§1) […] Whole cell lysates were collected using ice cold lysis buffer [300 mM NaCl, 50 mM Tris-HCl, pH 7.5, 0.5% Triton X-100, 1% sodium dodecyl sulfate (SDS), 1 mM dithiothreitol (DTT) (Invitrogen™), Roche®'s cOmplete™ protease inhibitor cocktail (1:000), 25 units/mL Benzonase®] and blotted at a protein concentration of 30 μg for EP300 and CBP and 10 μg for histone H3 and H3K27ac. Lysates were also blotted for bromodomain-containing protein 4 (BRD4). Lysates were resolved in NuPAGE™ 3-8% Tris-Acetate polyacrylamide gels (EA03785BOX, Invitrogen™) for EP300 and CBP and Bolt 4-12% Bis-Tris polyacrylamide gels (NW04125BOX, Invitrogen™) for H3 and H3K27ac. Afterwards, gels were transferred to nitrocellulose membranes (LC2001, Invitrogen™). […] Visualization was performed on an Odyssey infrared imaging system (LiCor® Biosciences)."}, "[3]": {"biological_target": "EP300 (Homo sapiens (Human), UniProt Q09472)", "assay": "Western blot for EP300 degradation in Kelly NB cells", "conditions": "24 hours, concentration not given", "procedure": "as §1"}}, "note": "At least one structure is not confirmed: it was looked up by name or label, or the drawing left a doubt."}
{"molecule": "Cc1noc(C)c1-c1ccn2c(NCc3ccccc3)c(-c3ccc(N4CCN(C(=O)CCOCCOCCOCCNc5cccc6c5C(=O)N(C5CCC(=O)NC5=O)C6=O)CC4)cc3)nc2c1", "note": "(stereo not drawn) [Compound 6, 4-((2-(2-(2-(3-(4-(4-(3-(benzylamino)-7-(3,5-dimethylisoxazol-4-yl)imidazopyridin-2-yl)phenyl)piperazin-1-yl)-3-oxopropoxy)ethoxy)ethoxy)ethyl)amino)-2-(2,6-dioxopiperidin-3-yl)isoindoline-1,3-dione]", "values": [{"measurement": "IC50 values (range in words)", "setting": "[1]", "value": "micromolar and sub-micromolar range"}, {"measurement": "CBP degradation (immunoblot)", "setting": "[2]", "value": "little to no degradation"}, {"measurement": "EP300 degradation (immunoblot)", "setting": "[3]", "value": "little to no degradation"}]}
